In article PMC6317315:
Where two headings read alike, the source gives them in different places. Results are given in words; binding and its absence hold for the method and conditions named. Binding seen in cells or lysates may run through a third protein. Here binding means that the protein was enriched with, or labelled near, the bait; the list need not be complete. For some assays here: A no says only that the protein was not detected with the bait.

The chains behind the UniProt entries cited, without tags or fusion partners. Where a name states a change or a piece, a line headed by the entry shows the natural chain unless it says otherwise.
UniProt Q23096: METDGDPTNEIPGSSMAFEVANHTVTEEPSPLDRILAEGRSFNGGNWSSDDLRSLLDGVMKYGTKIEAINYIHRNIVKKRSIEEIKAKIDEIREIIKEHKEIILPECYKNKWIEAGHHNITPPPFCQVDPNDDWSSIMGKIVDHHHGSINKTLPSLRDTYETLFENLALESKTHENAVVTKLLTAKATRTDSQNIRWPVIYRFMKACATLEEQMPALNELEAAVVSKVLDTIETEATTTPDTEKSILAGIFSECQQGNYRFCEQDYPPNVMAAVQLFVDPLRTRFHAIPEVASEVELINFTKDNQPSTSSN
UniProt O01819: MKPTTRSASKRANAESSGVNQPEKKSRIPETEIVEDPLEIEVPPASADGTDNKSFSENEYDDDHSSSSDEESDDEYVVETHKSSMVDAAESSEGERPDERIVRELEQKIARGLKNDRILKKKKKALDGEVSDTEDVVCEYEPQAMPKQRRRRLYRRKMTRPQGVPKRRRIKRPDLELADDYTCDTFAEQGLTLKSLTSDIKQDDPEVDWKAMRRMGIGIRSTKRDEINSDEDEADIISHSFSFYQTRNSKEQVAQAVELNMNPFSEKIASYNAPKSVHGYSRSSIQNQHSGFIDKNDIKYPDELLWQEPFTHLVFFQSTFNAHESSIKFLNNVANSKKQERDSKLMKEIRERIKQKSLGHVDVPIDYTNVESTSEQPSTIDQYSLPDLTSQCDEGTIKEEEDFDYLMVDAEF

Assays:
[1] = target: T1, piRNA silencing-defective 1 (PRDE-1) (C. elegans (endogenous in N2 animals)) (UniProt O17828); test: affinity purification with mass spectrometry; anti-PRDE-1 antibody KSOJ coupled to Dynabeads, nuclear extracts of young adult N2 animals in PBSCM buffer, overnight at 4°C, eight washes; controls: prde-1(mj207) mutant and uncoupled IgG beads
T1 sequence: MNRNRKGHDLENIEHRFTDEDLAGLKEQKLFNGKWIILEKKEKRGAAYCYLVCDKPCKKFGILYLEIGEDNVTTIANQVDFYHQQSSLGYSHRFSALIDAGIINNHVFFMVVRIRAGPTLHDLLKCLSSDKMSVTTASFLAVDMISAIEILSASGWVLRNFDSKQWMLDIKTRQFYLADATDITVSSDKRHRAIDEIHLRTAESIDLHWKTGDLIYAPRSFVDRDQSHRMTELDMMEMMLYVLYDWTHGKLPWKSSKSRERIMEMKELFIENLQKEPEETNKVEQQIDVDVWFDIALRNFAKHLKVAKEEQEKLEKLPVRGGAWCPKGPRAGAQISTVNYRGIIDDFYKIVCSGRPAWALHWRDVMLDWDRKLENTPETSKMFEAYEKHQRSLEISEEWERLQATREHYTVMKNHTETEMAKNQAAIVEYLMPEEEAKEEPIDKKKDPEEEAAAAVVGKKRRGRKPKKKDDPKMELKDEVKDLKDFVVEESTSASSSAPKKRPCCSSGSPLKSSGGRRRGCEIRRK

[2] = target: T1, piRNA silencing-defective 1 (PRDE-1) (C. elegans (endogenous in N2 animals)); test: as above; remark: listed apart in the source
[3] = target: TOFU-5::GFP::3xFlag (C. elegans); test: affinity purification with mass spectrometry; anti-GFP beads, lysate of nonsynchronized animals expressing TOFU-5::GFP, lysis buffer with 150 mM NaCl (2x: 300 mM) and Triton X-100, 1 h at 4°C, three washes

Question: With “twenty-one-U fouled-up 5 (TOFU-5) (from UniProt Q23096)” as the molecule, how does the binding [1] read?
Answer: binds

Question: With “twenty-one-U fouled-up 4 (TOFU-4) (from UniProt O01819)” as the molecule, how does the binding [1] read?
Answer: binds

B1: TATA-box-binding protein 1 (TBP-1) (protein, UniProt P32085 1-340)
chain: MNLNSPAVSMLGGDTPAHGGPNSVLGGQGPSSILTGHGPNSVMGPNSILGPGSVLNPQSIQPMQSQQMHSLQGSSMQMHSHLANSNLNLNINPASVGPDRNPGSVMHHNLDINPPSVAYQNLTVPMTPLAYSVYDRDALTHQAPASNIAATMVPATPASQLDIPMPALQNIVSTVNLGVQLDLKKIALHARNAEYNPKRFAAVIMRIREPRTTALIFSSGKMVCTGAKSEEASRLAARKYARIVQKLGFQAKFTEFMVQNMVGSCDVRFPIQLEGLCITHSQFSTYEPELFPGLIYRMVKPRVVLLIFVSGKVVITGAKTKRDIDEAFGQIYPILKGFKK
Question: With B1 as the molecule, how does the binding [2] read?
Answer: binds

B2: UNC-130 (protein, UniProt Q18694 1-333)
chain: MLFSMESILSSTKPKLEPPPKLEPEVTINEQVVDLPRSNTRLSEPSTSASVLEHDLKFGESRKRSRSLGDEPTEDEDGVPVRKANKRNHSTSSAADSSSDDAKDDDDDDDSTSRKSMSGHRKSSHAKPPYSYIALIAMSILNSPEKKLTLSEICEFIINKFEYYKEKFPAWQNSIRHNLSLNDCFVKVARGPGNPGKGNYWALDPNCEDMFDNGSFLRRRKRYKKNSDTYHEMMSHHPMPFPPFLPQGMPFPPRMMHPMANIPMLGHPMNPRAVPNMPAFFIPQNIDSQKLLSMMASRIMPMDAPVSSGQKRTSSSSSPNENGSSAVSDKLSA
Question: Which binding [3] does the source give for B2 here?
Answer: no binding

Question: What about the binding [2] of the same molecule?
Answer: no binding
